Source: patent publication EP4834888A1, “CATIONIC LIPID COMPRISING NITROGEN-CONTAINING HETEROCYCLE AND GLYCINE” (dated 2026)

System: 293T cells
Assay: In vitro transfection efficiency, luciferase bioluminescence (Fluc-mRNA)
Settings: for transfection effects between two molar ratios: L-15 with L-49, L-27 with L-50, 35:16:46.5:2.5 versus 50:10:38:1.5
Procedure: In order to investigate the mRNA transfection efficiency at the cellular level of each group of LNP-mRNA pharmaceutical compositions prepared in Example 47.1 of the present application, luciferase bioluminescence was used for testing. The LNP-mRNA pharmaceutical composition was dissolved in medium to prepare the required dose. 293T cells were used as the cell model, and cell suspensions of 100 µL/well were inoculated in a black-edged, clear-bottomed 96-well plate at a density of 6000 cells/well. After inoculation was completed, the cells were cultured in a cell culture incubator for 24 hours, and then the cells were dosed with 0.2 µg mRNA per well, while the blank control group was added with the corresponding dose of free Fluc-mRNA. After 24 hours of transfection, the old medium was replaced with fresh medium containing D-fluorescein sodium substrate (1.5 mg/mL). After 5 min of incubation, bioluminescence was detected using a microplate reader. The stronger the fluorescence, the more Fluc-mRNA is transported into the cytoplasm and translated the corresponding fluorescent protein. The results are shown in Table 2; wherein, the relative value of fluorescence intensity is the ratio of the fluorescence intensity of each group to the fluorescence intensity of the control group. […] The relative fluorescence values of the experimental groups L-1, L-3, L-15, L-16, L-19, L-26, L-27, L-28, L-30, L-32, and L-36 are higher. Meanwhile, there were differences in fluorescence intensity among the various experimental groups, which is probably due to the following variations in the cationic lipids: the type and/or number of degradable linking groups, and/or the type of hydrophobic hydrocarbon tail chain, and/or the degree of saturation of the hydrophobic hydrocarbon tail chain, and/or the carbon chain length between the linking group and the tertiary amine, and/or the number of ionizable tertiary amines. […]

Row | Structure (SMILES) | transfection effects between two molar ratios | transfection efficiency (comparison in words) (comparing E1-1 (L-1), E17-1 (L-19) and E6-1 (L-6))
1 | CCCCCCCCCCC(O)CN(CC(=O)NCCOCCN1CCN(CCOCCNC(=O)CN(CC(O)CCCCCCCCCC)CC(O)CCCCCCCCCC)CC1)CC(O)CCCCCCCCCC (stereo not drawn) | comparable between two different molar ratios, or slightly better for the molar ratio of 35:16:46.5:2.5 | –
2 | CCCCC#CCCCOC(=O)CCCCCCCN(CCCCCCCC(=O)OCCCC#CCCCC)CC(=O)OCCN1CCN(CCOC(=O)CN(CCCCCCCC(=O)OCCCC#CCCCC)CCCCCCCC(=O)OCCCC#CCCCC)CC1 | – | higher
3 | CCCCCCCCCCCCOC(=O)CCN(CCC(=O)OCCCCCCCCCCCC)CC(=O)OCCOCCN1CCN(CCOCCOC(=O)CN(CCC(=O)OCCCCCCCCCCCC)CCC(=O)OCCCCCCCCCCCC)CC1 | comparable between two different molar ratios, or slightly better for the molar ratio of 35:16:46.5:2.5 | –

Structures were worked out from names or drawings and are uncertain.
